Measured values published in PubChem BioAssay AID504467 (National Center for Advancing Translational Sciences (NCATS), 2011).
In all, about 330,000 compounds went through this assay and about 7,700 (2.3%) were called active. The inconclusive results got no clear call from the source; some entries with a clear call stand among them for comparison. Calls follow the shape of the dose curve; as a rule, active = well fitted inhibition curve with a large enough effect; inconclusive = small, poorly fitted or top-dose-only effect, or effect the other way; inactive = flat fitted curve, though single readings scatter. Where the call is inconclusive, the potency comes from a doubtful curve fit.
% is scaled to controls: 0 for no effect and ±100 for the full control effect; potency is read from the fitted curve at half-maximal effect.

Assay: qHTS screen for small molecules that inhibit ELG1-dependent DNA repair in human embryonic kidney (HEK293T) cells expressing luciferase-tagged ELG1; also: nearly all actives have a fitted effect of over 55% in size
Settings: HEK293T ELG1-luciferase reporter, luminescence, 16 h, DNA damage induced by 5-fluorouridine; activity change, negative = inhibition: at 46.1 µM (top of the series)
Procedure, shortened: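 Luminescence from the luciferase reporter, measured 30 min after ONE-Glo reagent at room temperature, was the read-out. Beforehand, 2,000 cells per well were exposed for 16 hr at 37 °C to 5-fluorouridine together with compound or vehicle.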
For `CC(=O)c1ccc(S(=O)(=O)Nc2ccc(C(=O)N3CCC3)cc2)cc1`, the “activity change, negative = inhibition” value was inactive: 1.66%. With `CC1CC2=C(CC1/C=N/NC(N)=S)C(C)(C)CCC2` (centres undefined) the Potency was inconclusive: 7.31 µM [inhibitor, partial curve, poor fit]. With `C[C@H](NC(=O)c1nc[nH]c1C(=O)N[C@@H](CCCCNC(=O)OC(C)(C)C)C(=O)OC(C)(C)C)c1ccccc1` the Potency was inconclusive: 29.1 µM [inhibitor, single point]. With `Cc1nn(Cc2ccccc2Cl)c(C)c1NC(=O)c1cc(-c2ccc(F)cc2)on1` the “activity change, negative = inhibition” value was inactive: 2.55%. With `Cc1ccc(SCCN2CCC(C(C)(C)C)CCC2=O)cc1` (centres undefined) the Potency was inconclusive: 20.6 µM [activator, single point]. With `CCOCCOc1cccc(C(=O)NC(C)c2ccc3ccccc3c2)c1` (centres undefined) the “activity change, negative = inhibition” value was inactive: -28.2%. For `CCOC(=O)c1c(NC(=S)N2CCN(C)CC2)sc2c1CCN(C(=O)OCC)C2`, the Potency was active: 16.4 µM. For `COc1ccc(CCNC(=O)c2cc(=O)c3cc(C)ccc3o2)cc1OC`, the Potency was inconclusive: 18.3 µM [inhibitor, single point]. For `CCN(Cc1ccncc1)Cc1c(O)ccc2ccccc12`, the Potency was inconclusive: 16.4 µM [inhibitor, partial curve, poor fit]. In the case of `CCOC(=O)c1ccc(NC(=O)CCc2nnc3ccc(N4CCCC4)nn23)cc1`, the Potency was inconclusive: 29.1 µM [inhibitor, single point]. With `O=C(Nc1ccc(F)cc1)C1CCN(c2nnnn2-c2ccccc2)CC1` the Potency was inconclusive: 29.1 µM [inhibitor, single point]. For `CCc1nnc2sc(-c3ccc(NC(=O)c4ccc5c(c4)OCCO5)cc3)nn12`, the Potency was active: 5.8 µM. With `CC1CCCCN1Cc1cnc(Cl)s1` (centres undefined) the “activity change, negative = inhibition” value was inactive: 2.53%. In the case of `O=[N+]([O-])c1ccc2[nH]c3c(c2c1)CCCC3`, the Potency was inconclusive: 3.26 µM [inhibitor, single point]. In the case of `Cc1nc(NC(=O)c2ccccc2)sc1-c1csc(Nc2ccc(Cl)cc2Cl)n1`, the Potency was inconclusive: 13 µM [inhibitor, partial curve, poor fit]. With `N/C(=N\OC(=O)CSc1ccccc1)c1ccc([N+](=O)[O-])cc1` the Potency was inconclusive: 18.4 µM [activator, partial curve]. In the case of `Cc1ccc2c(CN3CCN(S(=O)(=O)c4ccc5c(c4)OCCO5)CC3)cc(=O)oc2c1C`, the Potency was active: 14.6 µM. With `O=S(=O)(Nc1ncnc2sc3c(c12)CCC3)c1cc(F)ccc1F` the “activity change, negative = inhibition” value was inactive: 1.98%. In the case of `CCOc1ccc(C2=Nn3c(CC)nnc3SC2)cc1`, the Potency was inconclusive: 29.1 µM [activator, single point]. For `Cc1ccc(NC(=O)c2ccc(S(=O)(=O)N3CCCCC3)cc2)cc1`, the “activity change, negative = inhibition” value was inactive: -17.2%. For `c1ccc(Cn2c(NCc3ccncc3)nc3ccccc32)cc1`, the Potency was inconclusive: 29.1 µM [activator, single point]. With `COc1ccc(CCNc2nc(-c3cccc(NC(C)=O)c3)cs2)cc1OC` the Potency was inconclusive: 23.1 µM [inhibitor, single point]. For `O=C(O)Cn1cc(/C=C2/SC(=O)N(CC(=O)N3CCCCCC3)C2=O)c2ccccc21`, the “activity change, negative = inhibition” value was inactive: 6.49%. With `CCOc1ccc(N2C(=O)C(CC(=O)Nc3ccc(F)cc3)N(Cc3ccccn3)C2=S)cc1` (centres undefined) the Potency was inconclusive: 20.6 µM [inhibitor, single point]. With `Cc1ccc(NC(=O)CN2C(=O)NC3(CCc4ccccc43)C2=O)cc1S(=O)(=O)N1CCCCC1` (centres undefined) the Potency was inconclusive: 14.6 µM [inhibitor, partial curve]. With `O=c1c(Cl)c(N2CCN(c3ccccc3)CC2)cnn1C12CC3CC(CC(C3)C1)C2` the “activity change, negative = inhibition” value was inactive: -1.9%. In the case of `COc1ccc([C@H]2CC(=O)C=C(c3cccc(Cl)c3O)C2)cc1OC`, the Potency was inconclusive: 18.3 µM [inhibitor, single point]. For `COCCOC(=O)c1c(C)oc2ccc(OCc3cc(C(=O)OC)oc3C)cc12`, the Potency was inconclusive: 29.1 µM [inhibitor, single point]. For `CC(C)n1cnc2cc(NCc3ccccn3)ccc21`, the Potency was inconclusive: 8.2 µM [activator, partial curve]. With `CCN(CC)c1ccc(/C=N/NC(=S)NCc2ccc(OC)cc2)cc1` the Potency was inconclusive: 29.1 µM [inhibitor, single point]. With `O=C(C[C@H]1C/C=C\C[C@H](Cc2ccc(F)cc2)C(=O)O[C@@H](c2ccccc2)CNC1=O)N[C@H](CO)Cc1ccccc1` the Potency was inconclusive: 29.1 µM [inhibitor, single point]. With `CSc1ncc(-c2ccc(Cl)cc2)[nH]1` the Potency was inconclusive: 3.66 µM [activator, full curve]. With `COc1cc(-c2n[nH]c(=S)n2-c2cccc(C(F)(F)F)c2)cc(OC)c1OC` the Potency was inconclusive: 16.4 µM [activator, partial curve]. For `CCOc1ccccc1NC(=O)c1ccc(OCC(=O)N2CCOCC2)c(OC)c1`, the “activity change, negative = inhibition” value was inactive: 7.38%. For `O=C1CCC(=O)N1CCSC(=S)N1CCOCC1`, the “activity change, negative = inhibition” value was inactive: -10.2%. For `COc1ccc(-c2nnc(N(C)C(=O)c3ccco3)s2)cc1OC`, the Potency was inconclusive: 20.6 µM [activator, partial curve, poor fit]. With `c1ccc(-c2cc3c(ccc4nonc43)nn2)cc1` the Potency was inconclusive: 29.1 µM [activator, single point]. For `COc1cc(SC)ccc1C(=O)OCC(=O)N1CC(=O)Nc2ccccc21`, the “activity change, negative = inhibition” value was inactive: 1.35%. In the case of `O=C(CSc1ccc(F)cc1)Nc1ccc2c(c1)C(=O)NC2=O`, the “activity change, negative = inhibition” value was inactive: 14.5%. In the case of `Cc1ccc(NC(=S)NNC(=O)c2ccco2)cc1`, the Potency was inconclusive: 25.9 µM [activator, single point]. With `COc1ccc(NC(=O)NCCN2C(=O)C3C4C=CC(C4)C3C2=O)cc1` (centres undefined) the Potency was inconclusive: 20.6 µM [activator, partial curve]. With `COc1ccccc1C(=O)NNC(=O)c1cccc(O)c1` the Potency was inconclusive: 5.17 µM [activator, partial curve]. For `Cc1ccc(OC(C)C(=O)N(C)c2ccccc2)c([N+](=O)[O-])n1` (centres undefined), the “activity change, negative = inhibition” value was inactive: 9.68%. In the case of `Cn1c(=O)c2c(nc(SCC(=O)c3cccs3)n2Cc2ccc(F)cc2)n(C)c1=O`, the Potency was inconclusive: 20.6 µM [inhibitor, partial curve].
